PubChem BioAssay AID1259308, NCATS, 2017

- Screen: 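Genes whose loss raises luciferase production in HEK293 cells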 (primary screen)
- Cell system: human HEK293 embryonic kidney cells stably expressing firefly luciferase (HEK-CMV-Luc2-Hygro)
- Knock-down reagent: single siRNA against human genes, 0.8 pmol siRNA per well
- Time to read-out: 72 h
- Read-out: 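Reporter luminescence and viable-cell signal on separate replicate plates, given as percent of non-targeting control and median/MAD z-scores, plus per-cell luciferase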
- Reading the numbers: total luciferase, z-score and total luciferase, % of control: higher = more reporter protein produced; luciferase per cell, z-score: higher = more reporter output per viable cell; viable cells, % of control: higher = more viable cells
- Hit rule: 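Active when the median/MAD z-score for overall luciferase is greater than 3; a gene was taken forward for validation with new siRNAs if at least two of its three siRNAs passed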
- Meaning of the calls: active = raised luciferase; inactive = no rise
The deposit covers about 59,000 reagents; this is an unselected part. In the full data, about 1,510 (2.6%) are marked active. 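Calls use total luciferase alone and ignore viability, so some active siRNAs may act by altering cell number.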 The numbers tell different reagents against one gene apart. No sequences are given here.

| gene | reagent | total luciferase, z-score | total luciferase, % of control | luciferase per cell, z-score | viable cells, % of control | call |
| --- | --- | --- | --- | --- | --- | --- |
| MEX3A | 1 | 0.171 | 85.3 | -0.171 | 99.7 | inactive |
| MEX3A | 2 | -0.387 | 74.2 | -0.105 | 85.2 | inactive |
| MEX3A | 3 | -0.216 | 77.6 | -0.702 | 104 | inactive |
| LRIG2 | 1 | -0.296 | 76 | -0.277 | 91.3 | inactive |
| LRIG2 | 2 | 0.891 | 99.6 | 0.299 | 103 | inactive |
| LRIG2 | 3 | -1.29 | 56.1 | -1.5 | 93 | inactive |
| KLK3 | 1 | 1.33 | 108 | 1.7 | 77.4 | inactive |
| KLK3 | 2 | -2.61 | 30 | -4.34 | 105 | inactive |
| KLK3 | 3 | -0.352 | 74.9 | -0.586 | 97.7 | inactive |
| RMND5A | 1 | -1.98 | 42.5 | -2.48 | 91.3 | inactive |
| RMND5A | 2 | 2.07 | 123 | 0.938 | 107 | inactive |
| RMND5A | 3 | -0.563 | 70.7 | -0.788 | 97.2 | inactive |
| RBM34 | 1 | 0.143 | 84.7 | 0.203 | 89.8 | inactive |
| RBM34 | 2 | 0.0317 | 82.5 | -0.883 | 116 | inactive |
| RBM34 | 3 | -0.491 | 72.1 | -0.942 | 103 | inactive |
| LINC01587 | 1 | 2.79 | 137 | 2.59 | 77.8 | inactive |
| LINC01587 | 2 | -1.47 | 52.7 | -0.639 | 69.7 | inactive |
| LINC01587 | 3 | 0.677 | 95.3 | 0.68 | 89.1 | inactive |
| CCDC17 | 1 | -1.56 | 50.8 | 0.693 | 47.3 | inactive |
| CCDC17 | 2 | 3.79 | 157 | 2.67 | 87 | active |
| CCDC17 | 3 | 0.00142 | 81.9 | 0.139 | 88.2 | inactive |
| CPNE9 | 1 | -0.0586 | 80.7 | 0.0953 | 88 | inactive |
| CPNE9 | 2 | -0.754 | 66.9 | -0.303 | 81 | inactive |
| CPNE9 | 3 | -0.653 | 68.9 | -0.867 | 96.8 | inactive |
| SLC17A9 | 1 | -1.42 | 53.6 | -1.17 | 81.7 | inactive |
| SLC17A9 | 2 | 0.828 | 98.4 | 0.209 | 104 | inactive |
| SLC17A9 | 3 | 1.18 | 105 | 0.734 | 97.1 | inactive |
| SAMTOR | 1 | 1.14 | 105 | 0.435 | 104 | inactive |
| SAMTOR | 2 | 0.217 | 86.2 | 0.0745 | 94.5 | inactive |
| SAMTOR | 3 | 2.46 | 131 | 1.74 | 92.5 | inactive |
| EFNB3 | 1 | -0.364 | 74.6 | -0.23 | 88.6 | inactive |
| EFNB3 | 2 | 0.344 | 88.7 | 0.223 | 93.5 | inactive |
| EFNB3 | 3 | 0.654 | 94.9 | 0.694 | 88.3 | inactive |
| TMEM114 | 1 | -1.3 | 56.1 | -0.592 | 73.2 | inactive |
| TMEM114 | 2 | -0.542 | 71.1 | -0.304 | 86.1 | inactive |
| TMEM114 | 3 | -1.44 | 53.3 | -1.23 | 82.2 | inactive |

Look-ups from the list.
KLK3 #2, total luciferase, % of control = 30
For “total luciferase, z-score”, KLK3 #1 is entered as 1.33
Entry of CCDC17 #3 under “call”: inactive
Under “total luciferase, % of control”, SAMTOR #1 has 105
Result of RBM34 #2 under “total luciferase, z-score”: 0.0317
Value for EFNB3 #2 under “total luciferase, % of control”: 88.7

The results go on:
| gene | reagent | total luciferase, z-score | total luciferase, % of control | luciferase per cell, z-score | viable cells, % of control | call |
| --- | --- | --- | --- | --- | --- | --- |
| CFAP61 | 1 | -0.272 | 76.5 | 0.321 | 78.5 | inactive |
| CFAP61 | 2 | -1.54 | 51.3 | -0.544 | 66.1 | inactive |
| CFAP61 | 3 | -1.39 | 54.2 | -1.26 | 84.4 | inactive |
| WDR76 | 1 | 0.996 | 102 | 0.797 | 92.1 | inactive |
| WDR76 | 2 | -0.428 | 73.4 | -1.31 | 116 | inactive |
| WDR76 | 3 | 0.746 | 96.7 | 0.772 | 88.2 | inactive |
| DPYD | 1 | -2.13 | 39.6 | -3.35 | 107 | inactive |
| DPYD | 2 | -1.2 | 58 | -0.656 | 77.1 | inactive |
| DPYD | 3 | 0.719 | 96.2 | 0.191 | 102 | inactive |
| OR5L2 | 1 | -2.19 | 38.4 | -0.674 | 51.3 | inactive |
| OR5L2 | 2 | 0.567 | 93.2 | 0.486 | 91.6 | inactive |
| OR5L2 | 3 | 2.99 | 141 | 2.44 | 83 | inactive |
| CDHR2 | 1 | -0.28 | 76.3 | 0.328 | 78.2 | inactive |
| CDHR2 | 2 | 1.33 | 108 | 1.21 | 88 | inactive |
| CDHR2 | 3 | -2.69 | 28.4 | -4.07 | 92.8 | inactive |
| C7 | 1 | -0.18 | 78.3 | -0.0929 | 89.7 | inactive |
| C7 | 2 | 0.214 | 86.1 | 1.37 | 67.1 | inactive |
| C7 | 3 | 0.654 | 94.9 | 0.642 | 89.6 | inactive |
| MISP | 1 | 0.158 | 85 | -0.29 | 103 | inactive |
| MISP | 2 | 1.86 | 119 | 1.96 | 79.2 | inactive |
| MISP | 3 | -0.497 | 72 | -0.571 | 93.5 | inactive |
